The supplement of paper PMC10849652
This is one part of the list.

Protein sequences, listed by entry. Tags and fused reporters are not part of them. Lines headed by an entry give the natural chain unless they say otherwise; changes in a name come on top.
UniProt Q9BVJ7: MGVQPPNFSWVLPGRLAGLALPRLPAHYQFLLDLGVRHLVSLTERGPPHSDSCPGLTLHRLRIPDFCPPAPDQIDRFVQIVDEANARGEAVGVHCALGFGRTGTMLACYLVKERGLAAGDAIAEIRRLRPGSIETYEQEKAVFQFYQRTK
UniProt Q9NRR4: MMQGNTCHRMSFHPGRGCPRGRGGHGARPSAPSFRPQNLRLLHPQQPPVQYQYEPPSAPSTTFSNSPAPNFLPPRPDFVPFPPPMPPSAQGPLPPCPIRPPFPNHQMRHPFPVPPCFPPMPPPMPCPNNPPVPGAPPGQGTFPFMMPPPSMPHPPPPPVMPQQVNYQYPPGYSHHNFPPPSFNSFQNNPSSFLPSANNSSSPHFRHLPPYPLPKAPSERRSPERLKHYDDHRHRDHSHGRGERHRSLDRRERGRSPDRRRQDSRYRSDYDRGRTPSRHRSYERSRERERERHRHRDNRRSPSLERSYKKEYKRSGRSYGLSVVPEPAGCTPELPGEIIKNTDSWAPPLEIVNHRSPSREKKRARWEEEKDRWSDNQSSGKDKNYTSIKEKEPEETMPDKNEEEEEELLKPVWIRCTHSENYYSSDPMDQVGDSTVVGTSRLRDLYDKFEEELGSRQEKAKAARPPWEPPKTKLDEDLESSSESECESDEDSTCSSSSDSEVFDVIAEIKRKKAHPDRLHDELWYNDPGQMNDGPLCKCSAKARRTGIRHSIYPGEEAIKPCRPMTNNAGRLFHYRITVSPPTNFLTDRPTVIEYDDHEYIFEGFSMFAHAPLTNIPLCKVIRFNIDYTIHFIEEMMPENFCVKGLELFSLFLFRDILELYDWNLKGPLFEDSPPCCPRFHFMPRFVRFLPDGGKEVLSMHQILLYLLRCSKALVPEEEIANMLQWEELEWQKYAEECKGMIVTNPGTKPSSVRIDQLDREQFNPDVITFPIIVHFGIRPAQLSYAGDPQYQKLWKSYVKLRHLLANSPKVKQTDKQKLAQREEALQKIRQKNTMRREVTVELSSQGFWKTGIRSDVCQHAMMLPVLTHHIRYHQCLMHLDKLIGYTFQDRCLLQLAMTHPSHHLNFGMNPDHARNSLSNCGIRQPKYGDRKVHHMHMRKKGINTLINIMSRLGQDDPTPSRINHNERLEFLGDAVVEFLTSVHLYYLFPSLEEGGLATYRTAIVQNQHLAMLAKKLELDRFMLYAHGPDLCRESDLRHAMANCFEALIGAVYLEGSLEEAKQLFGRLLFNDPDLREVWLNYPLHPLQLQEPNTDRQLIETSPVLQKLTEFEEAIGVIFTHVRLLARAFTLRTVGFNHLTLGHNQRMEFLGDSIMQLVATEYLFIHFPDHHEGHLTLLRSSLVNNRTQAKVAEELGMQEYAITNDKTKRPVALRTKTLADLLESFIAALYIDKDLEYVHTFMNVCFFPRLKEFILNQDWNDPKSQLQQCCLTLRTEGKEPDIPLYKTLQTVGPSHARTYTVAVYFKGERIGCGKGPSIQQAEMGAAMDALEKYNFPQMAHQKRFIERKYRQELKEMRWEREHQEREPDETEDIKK
UniProt O95905: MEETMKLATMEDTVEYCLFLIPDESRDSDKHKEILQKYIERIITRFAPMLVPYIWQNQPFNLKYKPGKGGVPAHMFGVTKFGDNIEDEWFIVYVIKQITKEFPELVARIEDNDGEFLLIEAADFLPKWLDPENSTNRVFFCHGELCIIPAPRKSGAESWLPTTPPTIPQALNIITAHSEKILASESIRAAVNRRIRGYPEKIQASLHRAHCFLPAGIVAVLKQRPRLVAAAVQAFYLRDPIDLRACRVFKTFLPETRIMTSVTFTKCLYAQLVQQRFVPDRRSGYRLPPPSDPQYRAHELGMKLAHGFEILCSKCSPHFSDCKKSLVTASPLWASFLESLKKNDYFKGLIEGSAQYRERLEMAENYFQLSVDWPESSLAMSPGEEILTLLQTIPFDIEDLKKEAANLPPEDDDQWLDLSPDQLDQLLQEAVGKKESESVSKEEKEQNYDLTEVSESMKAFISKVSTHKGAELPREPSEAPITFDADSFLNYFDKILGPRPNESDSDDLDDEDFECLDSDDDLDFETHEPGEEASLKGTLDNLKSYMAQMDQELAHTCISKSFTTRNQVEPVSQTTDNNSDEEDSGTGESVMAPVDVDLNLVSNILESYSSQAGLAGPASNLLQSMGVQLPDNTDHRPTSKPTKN
EEF1AKMT2, A0A494BZY7, UniProt A0A494BZY7, whole entry, looked up: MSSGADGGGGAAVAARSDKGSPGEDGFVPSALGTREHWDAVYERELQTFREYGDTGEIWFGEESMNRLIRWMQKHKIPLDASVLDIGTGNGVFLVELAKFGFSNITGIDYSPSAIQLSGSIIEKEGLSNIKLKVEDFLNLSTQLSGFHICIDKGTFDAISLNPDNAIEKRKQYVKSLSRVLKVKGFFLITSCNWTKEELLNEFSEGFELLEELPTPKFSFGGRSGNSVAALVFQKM
UniProt Q9NX74: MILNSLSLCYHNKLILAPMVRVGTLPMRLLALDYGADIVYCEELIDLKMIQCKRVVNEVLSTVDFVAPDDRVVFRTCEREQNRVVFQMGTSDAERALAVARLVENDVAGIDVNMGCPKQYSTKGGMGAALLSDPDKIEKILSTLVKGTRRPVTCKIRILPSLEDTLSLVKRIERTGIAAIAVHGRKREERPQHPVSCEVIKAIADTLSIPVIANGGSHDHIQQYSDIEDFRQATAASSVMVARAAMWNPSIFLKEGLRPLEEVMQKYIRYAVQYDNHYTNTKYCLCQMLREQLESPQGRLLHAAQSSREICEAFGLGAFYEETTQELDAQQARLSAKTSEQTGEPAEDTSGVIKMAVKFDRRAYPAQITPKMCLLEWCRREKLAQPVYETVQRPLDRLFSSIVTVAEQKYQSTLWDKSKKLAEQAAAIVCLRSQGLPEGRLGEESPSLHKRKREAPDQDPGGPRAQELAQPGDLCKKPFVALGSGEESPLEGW
UniProt Q9BTV6: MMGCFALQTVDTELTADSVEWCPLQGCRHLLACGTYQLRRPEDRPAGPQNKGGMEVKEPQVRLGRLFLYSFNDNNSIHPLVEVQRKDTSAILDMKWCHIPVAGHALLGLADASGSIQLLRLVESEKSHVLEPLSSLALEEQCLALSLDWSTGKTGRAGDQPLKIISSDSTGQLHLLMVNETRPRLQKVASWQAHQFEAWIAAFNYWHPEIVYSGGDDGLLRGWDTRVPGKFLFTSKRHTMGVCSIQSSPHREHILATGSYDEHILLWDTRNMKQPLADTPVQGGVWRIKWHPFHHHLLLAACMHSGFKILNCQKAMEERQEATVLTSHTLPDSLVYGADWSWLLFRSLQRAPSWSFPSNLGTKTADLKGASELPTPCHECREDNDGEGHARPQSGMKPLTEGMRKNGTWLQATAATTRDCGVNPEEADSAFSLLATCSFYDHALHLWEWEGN
UniProt Q56P03: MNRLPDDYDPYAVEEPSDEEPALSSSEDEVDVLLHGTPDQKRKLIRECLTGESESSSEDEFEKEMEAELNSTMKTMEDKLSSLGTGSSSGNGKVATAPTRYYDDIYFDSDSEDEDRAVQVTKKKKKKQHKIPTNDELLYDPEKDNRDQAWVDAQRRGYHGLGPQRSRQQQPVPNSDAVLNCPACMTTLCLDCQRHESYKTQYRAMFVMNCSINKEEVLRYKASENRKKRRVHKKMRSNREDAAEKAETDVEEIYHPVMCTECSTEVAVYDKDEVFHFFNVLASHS
UniProt Q99956: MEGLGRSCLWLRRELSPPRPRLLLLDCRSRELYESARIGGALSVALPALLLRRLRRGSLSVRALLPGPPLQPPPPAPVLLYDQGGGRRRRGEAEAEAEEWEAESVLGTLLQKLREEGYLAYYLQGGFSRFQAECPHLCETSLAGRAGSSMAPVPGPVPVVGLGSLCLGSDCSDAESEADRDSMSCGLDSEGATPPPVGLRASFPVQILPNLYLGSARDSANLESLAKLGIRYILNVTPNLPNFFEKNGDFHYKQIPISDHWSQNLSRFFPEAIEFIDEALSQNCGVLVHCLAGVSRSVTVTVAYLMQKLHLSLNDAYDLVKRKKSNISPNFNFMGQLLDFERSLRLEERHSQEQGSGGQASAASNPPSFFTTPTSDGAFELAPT
UniProt Q15125: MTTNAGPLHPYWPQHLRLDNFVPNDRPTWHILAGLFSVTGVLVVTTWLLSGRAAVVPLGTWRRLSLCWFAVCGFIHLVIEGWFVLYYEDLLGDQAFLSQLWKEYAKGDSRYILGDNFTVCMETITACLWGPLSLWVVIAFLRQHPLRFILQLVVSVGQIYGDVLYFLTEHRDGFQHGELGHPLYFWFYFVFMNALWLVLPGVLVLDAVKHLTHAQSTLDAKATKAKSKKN
UniProt Q9H2P9: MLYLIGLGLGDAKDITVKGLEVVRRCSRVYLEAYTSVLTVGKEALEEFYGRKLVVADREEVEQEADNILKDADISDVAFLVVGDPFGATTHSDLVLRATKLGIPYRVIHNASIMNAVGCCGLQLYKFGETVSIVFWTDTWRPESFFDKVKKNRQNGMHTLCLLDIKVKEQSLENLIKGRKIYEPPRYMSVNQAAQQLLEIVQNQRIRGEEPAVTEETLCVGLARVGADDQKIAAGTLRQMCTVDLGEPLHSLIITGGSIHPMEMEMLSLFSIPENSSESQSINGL
UniProt Q7L8W6: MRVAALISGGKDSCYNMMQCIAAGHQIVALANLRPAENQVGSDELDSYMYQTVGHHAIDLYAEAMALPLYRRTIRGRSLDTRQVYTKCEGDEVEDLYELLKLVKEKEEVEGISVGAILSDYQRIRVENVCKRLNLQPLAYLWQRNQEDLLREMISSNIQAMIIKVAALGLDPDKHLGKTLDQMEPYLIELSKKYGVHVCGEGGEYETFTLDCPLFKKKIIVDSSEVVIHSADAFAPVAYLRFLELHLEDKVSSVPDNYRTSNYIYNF
UniProt Q15075: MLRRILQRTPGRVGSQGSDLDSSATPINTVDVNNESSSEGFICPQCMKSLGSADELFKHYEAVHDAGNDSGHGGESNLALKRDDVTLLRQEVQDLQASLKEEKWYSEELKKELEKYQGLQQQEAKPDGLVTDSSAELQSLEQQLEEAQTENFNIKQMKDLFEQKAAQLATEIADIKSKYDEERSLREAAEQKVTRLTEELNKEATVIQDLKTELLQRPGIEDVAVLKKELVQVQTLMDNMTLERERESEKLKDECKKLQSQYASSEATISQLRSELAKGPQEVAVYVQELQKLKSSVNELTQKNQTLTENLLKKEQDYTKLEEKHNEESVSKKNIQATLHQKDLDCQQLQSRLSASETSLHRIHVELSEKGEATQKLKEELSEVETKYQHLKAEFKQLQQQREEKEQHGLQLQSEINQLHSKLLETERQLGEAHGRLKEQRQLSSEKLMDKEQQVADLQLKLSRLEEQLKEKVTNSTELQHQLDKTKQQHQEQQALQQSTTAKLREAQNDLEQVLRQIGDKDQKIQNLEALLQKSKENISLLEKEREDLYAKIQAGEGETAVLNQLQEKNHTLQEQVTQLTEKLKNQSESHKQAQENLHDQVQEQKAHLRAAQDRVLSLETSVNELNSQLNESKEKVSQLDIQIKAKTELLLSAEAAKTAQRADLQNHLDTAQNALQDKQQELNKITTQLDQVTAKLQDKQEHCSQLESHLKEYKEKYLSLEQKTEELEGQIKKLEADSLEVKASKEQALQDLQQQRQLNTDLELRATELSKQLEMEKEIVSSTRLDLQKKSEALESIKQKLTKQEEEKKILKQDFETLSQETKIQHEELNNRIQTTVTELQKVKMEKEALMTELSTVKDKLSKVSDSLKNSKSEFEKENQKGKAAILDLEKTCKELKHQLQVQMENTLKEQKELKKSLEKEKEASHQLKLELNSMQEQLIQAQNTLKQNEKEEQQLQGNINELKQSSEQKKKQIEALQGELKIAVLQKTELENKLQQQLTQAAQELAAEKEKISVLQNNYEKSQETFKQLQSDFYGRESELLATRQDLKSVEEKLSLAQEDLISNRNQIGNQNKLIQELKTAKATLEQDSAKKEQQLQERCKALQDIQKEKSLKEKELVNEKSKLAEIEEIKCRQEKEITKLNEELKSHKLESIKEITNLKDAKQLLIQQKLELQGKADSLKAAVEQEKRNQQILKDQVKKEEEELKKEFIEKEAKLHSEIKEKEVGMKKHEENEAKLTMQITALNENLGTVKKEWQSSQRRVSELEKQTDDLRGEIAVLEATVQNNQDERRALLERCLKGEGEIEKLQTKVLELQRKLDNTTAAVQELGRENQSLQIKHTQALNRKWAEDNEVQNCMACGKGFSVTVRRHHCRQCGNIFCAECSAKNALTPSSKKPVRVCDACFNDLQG
UniProt O95620: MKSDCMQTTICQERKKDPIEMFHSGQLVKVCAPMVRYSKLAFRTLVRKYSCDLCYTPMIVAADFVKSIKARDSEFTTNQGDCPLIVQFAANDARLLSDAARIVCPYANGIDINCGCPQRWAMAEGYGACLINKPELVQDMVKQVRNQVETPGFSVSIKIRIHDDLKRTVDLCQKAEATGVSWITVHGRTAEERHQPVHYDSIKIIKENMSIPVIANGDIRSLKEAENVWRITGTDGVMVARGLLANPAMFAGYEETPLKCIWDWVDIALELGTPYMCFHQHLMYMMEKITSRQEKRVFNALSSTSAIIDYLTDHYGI

Legend:
Experiment in all cases: log2 fold change, soluble protein after heating vs DMSO (PISA); higher = thermal stabilisation; K562 lysate, 10 uM; active = over 0.2 and 3.5 SD of the protein, either way, in both replicates (recomputed)
erlotinib = compound: C#Cc1cccc(Nc2ncnc3cc(OCCOC)c(OCCOC)cc23)c1 [erlotinib]
Summary of the method: (§1)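 Values give the log-two fold change in thermal stability against solvent controls, from duplicates. Crude K562 extract at 1 mg/mL protein, made by dounce homogenisation in PBS pH 7.4 with 1 mM MgCl2, was treated with 10 μM compound for 30 min. After 3 min heating across 48°C-58°C, aliquots were pooled, adjusted to 0.5% NP-40 at 4°C and centrifuged at 21,000xg for 90 min. The supernatant was measured by TMTpro 16plex LC-MS/MS with channel sums equalised.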

[1] = compound: C/C(=N\NC(=O)C1=CC(=CC=C1)S(=O)(=O)N2CCOCC2)/C3=C(C=CC(=C3)Cl)O
Summary of the method: as §1

[2] = compound: C1=CC(=CC=C1C2=NC3=C(N2)C=C(C=C3)C(=O)N)OC4=CC=C(C=C4)Cl
Summary of the method: as §1

[3] = compound: C1=CC2=C(C=CC(=C2)/C=C\3/C(=O)NC(=NCC4=CC=CS4)S3)N=C1
Summary of the method: as §1

[4] = compound: C1=CC2=NC=CN=C2C=C1/C=C/3\C(=O)NC(=O)S3
Summary of the method: as §1

[5] = compound: C1=CC=C(C=C1)C2=NC(=C(N2)C3=CC=NC=C3)C4=CC(=C(C=C4)Cl)O
Summary of the method: as §1

[6] = compound: C1=CC=C2C(=C1)C3=NNC4=CC=CC(=C43)C2=O
Summary of the method: as §1

[7] = compound: C1CCN(C1)C(=O)NC2=CC=CC(=C2)NC3=NC=C(C(=N3)NCCC4=CN=CN4)Br
Summary of the method: as §1

[8] = compound: C1CN(CCC1(CC2=CC=C(C=C2)Cl)N)C3=NC=NC4=C3C=CN4
Summary of the method: as §1

IRAK-1-4 Inhibitor I = compound: C1COCCN1CCN2C3=CC=CC=C3N=C2NC(=O)C4=CC(=CC=C4)[N+](=O)[O-] [IRAK-1-4 Inhibitor I]
Summary of the method: as §1

Target	log2 fold change (erlotinib)	log2 fold change [1]	log2 fold change [2]	log2 fold change [3]	log2 fold change [4]	log2 fold change [5]	log2 fold change [6]	log2 fold change [7]	log2 fold change [8]	log2 fold change (IRAK-1-4 Inhibitor I)
DUSP23 (UniProt Q9BVJ7)	inactive: -0.026	inactive: 0.007	inactive: -0.034	inactive: 0.057	inactive: 0.002	inactive: 0.033	inactive: -0.1	inactive: -0.036	inactive: 0.02	inactive: 0.066
DROSHA (UniProt Q9NRR4)	inactive: 0.048	inactive: -0.016	inactive: -0.027	inactive: -0.021	inactive: 0.075	inactive: -0.017	inactive: -0.033	inactive: 0.044	inactive: 0.054	inactive: -0.02
EHD1 (UniProt Q9H4M9)	inactive: 0.013	inactive: 0.028	inactive: 0.028	inactive: 0.001	inactive: -0.01	inactive: 0.008	inactive: -0.025	inactive: -0.013	inactive: 0.017	inactive: -0.012
ECD isoform 3 (UniProt O95905)	inactive: 0.04	inactive: 0.122	inactive: -0.004	inactive: -0.015	inactive: -0.038	inactive: 0	inactive: -0.053	inactive: 0.034	inactive: 0.106	inactive: -0.029
EI24 (UniProt O14681)	inactive: -0.039	inactive: -0.113	inactive: -0.047	inactive: 0.022	inactive: 0.051	inactive: -0.074	inactive: -0.145	inactive: -0.008	inactive: 0.007	inactive: 0.067
DVL3 (UniProt Q92997)	inactive: 0.005	inactive: 0.013	inactive: -0.007	inactive: -0.047	inactive: -0.051	inactive: -0.09	inactive: -0.155	inactive: 0.179	inactive: -0.024	inactive: -0.018
DPH1 (UniProt Q9BZG8)	inactive: -0.039	inactive: 0.047	inactive: 0.046	inactive: -0.015	inactive: -0.005	inactive: 0.002	inactive: 0.043	inactive: 0.005	inactive: -0.026	inactive: 0.017
E2F4 (UniProt Q16254)	inactive: 0.048	inactive: -0.033	inactive: -0.054	inactive: 0.024	inactive: 0.029	inactive: 0.011	inactive: -0.01	inactive: -0.025	inactive: 0.008	inactive: 0.008
EEF1A1P5 (UniProt Q5VTE0)	inactive: 0.014	inactive: -0.054	inactive: 0.023	inactive: 0	inactive: 0.001	inactive: -0.01	inactive: -0.065	inactive: -0.048	inactive: 0.022	inactive: 0.003
EEF1AKMT2, A0A494BZY7	inactive: 0.008	inactive: -0.408	inactive: 0	inactive: -0.046	inactive: -0.018	inactive: -0.024	inactive: 0.012	inactive: -0.025	inactive: 0.03	inactive: -0.009
DYRK1A (UniProt Q13627)	inactive: -0.061	inactive: -0.057	inactive: -0.004	inactive: 0.186	inactive: 0.175	inactive: 0.016	inactive: 0.084	inactive: -0.008	inactive: -0.034	inactive: -0.046
DUS2 (UniProt Q9NX74)	inactive: 0.006	inactive: 0.007	inactive: 0.017	inactive: 0.057	inactive: 0.027	inactive: 0.021	inactive: 0.033	inactive: -0.016	inactive: 0.05	inactive: -0.004
DST (UniProt Q03001)	inactive: 0.025	inactive: -0.035	inactive: 0.046	inactive: -0.03	inactive: -0.042	inactive: 0	inactive: -0.16	inactive: -0.046	inactive: 0	inactive: 0.04
DPYSL2 (UniProt Q16555)	inactive: 0	inactive: -0.083	inactive: 0.006	inactive: 0.018	inactive: 0.04	inactive: 0.006	inactive: 0.054	inactive: -0.077	inactive: -0.186	inactive: 0.04
DPH7 (UniProt Q9BTV6)	inactive: 0.018	inactive: -0.012	inactive: -0.019	inactive: -0.051	inactive: 0.02	inactive: 0.01	inactive: -0.001	inactive: -0.004	inactive: 0.019	inactive: 0.068
EEFSEC (UniProt P57772)	inactive: -0.006	inactive: 0.054	inactive: -0.044	inactive: -0.022	inactive: 0.006	inactive: -0.044	inactive: -0.054	inactive: -0.025	inactive: -0.007	inactive: -0.024
EAPP (UniProt Q56P03)	inactive: 0.012	active: 0.349	inactive: 0.018	inactive: 0.098	inactive: 0.073	inactive: 0.011	inactive: -0.094	inactive: 0.024	inactive: 0.103	inactive: -0.014
DUSP9 (UniProt Q99956)	inactive: 0.066	inactive: 0.101	inactive: 0	inactive: -0.239	inactive: 0.114	inactive: -0.003	inactive: 0.26	inactive: 0.066	inactive: 0.008	inactive: -0.053
EFCAB14 (UniProt O75071)	inactive: 0.019	inactive: 0.115	inactive: 0.043	inactive: -0.036	inactive: -0.019	inactive: -0.042	inactive: -0.022	inactive: 0.01	inactive: 0.042	inactive: 0.011
DTX3L (UniProt Q8TDB6)	inactive: 0.032	inactive: -0.04	inactive: 0.022	inactive: -0.117	inactive: 0.026	inactive: -0.076	inactive: -0.093	inactive: -0.011	inactive: -0.018	inactive: 0.033
EBP (UniProt Q15125)	inactive: 0.055	inactive: 0.015	inactive: -0.073	inactive: -0.068	inactive: 0.01	inactive: -0.03	inactive: -0.128	inactive: 0.008	inactive: 0.047	inactive: 0.086
DPH5 isoform 5 (UniProt Q9H2P9)	inactive: 0.008	inactive: -0.028	inactive: -0.025	inactive: 0.066	inactive: -0.017	inactive: 0.074	inactive: 0.046	inactive: -0.027	inactive: 0.027	inactive: 0.009
DPH6 (UniProt Q7L8W6)	inactive: 0.005	inactive: 0.02	inactive: 0.036	inactive: 0.008	inactive: -0.045	inactive: -0.009	inactive: -0.005	inactive: 0.044	inactive: 0.02	inactive: 0.026
DTNBP1 (UniProt Q96EV8)	inactive: 0.026	inactive: 0.015	inactive: 0.004	inactive: -0.048	inactive: -0.019	inactive: 0.016	inactive: -0.009	inactive: 0.025	inactive: 0.009	inactive: -0.023
DPF1 isoform 2 (UniProt Q92782)	inactive: 0.146	inactive: 0.079	inactive: -0.009	inactive: 0.215	inactive: -0.073	inactive: -0.019	inactive: 0.165	inactive: -0.041	inactive: -0.191	inactive: -0.019
EIF1AX (UniProt P47813)	inactive: -0.024	inactive: -0.087	inactive: 0.038	inactive: -0.007	inactive: -0.033	inactive: -0.014	inactive: -0.044	inactive: 0.004	inactive: -0.037	inactive: -0.011
EEA1 (UniProt Q15075)	inactive: -0.025	inactive: 0.015	inactive: 0.003	inactive: -0.011	inactive: -0.029	inactive: 0.005	inactive: 0.01	inactive: 0	inactive: 0	inactive: -0.015
DUS4L (UniProt O95620)	inactive: 0.03	inactive: 0.02	inactive: 0.023	inactive: 0.007	inactive: -0.034	inactive: 0.055	inactive: 0.062	inactive: -0.019	inactive: 0.02	inactive: -0.018
EHMT2 (UniProt A2ABF8)	inactive: 0.024	inactive: -0.051	inactive: -0.007	inactive: -0.018	inactive: -0.007	inactive: -0.008	inactive: 0.023	inactive: -0.028	inactive: 0.017	inactive: -0.005
EAF1 (UniProt Q96JC9)	inactive: -0.056	inactive: -0.041	inactive: 0.093	inactive: 0.011	inactive: 0.016	inactive: 0.035	inactive: 0.003	inactive: 0.004	inactive: 0.027	inactive: 0.017

No new results follow: an excerpt of the list.
Target	log2 fold change (erlotinib)	log2 fold change [1]	log2 fold change [2]	log2 fold change [3]	log2 fold change [4]	log2 fold change [5]	log2 fold change [6]	log2 fold change [7]	log2 fold change [8]	log2 fold change (IRAK-1-4 Inhibitor I)
EEF1A1P5 (UniProt Q5VTE0)	inactive: 0.014	inactive: -0.054	inactive: 0.023	inactive: 0	inactive: 0.001	inactive: -0.01	inactive: -0.065	inactive: -0.048	inactive: 0.022	inactive: 0.003
EEF1AKMT2, A0A494BZY7	inactive: 0.008	inactive: -0.408	inactive: 0	inactive: -0.046	inactive: -0.018	inactive: -0.024	inactive: 0.012	inactive: -0.025	inactive: 0.03	inactive: -0.009
